Results are given in words; binding and its absence hold for the method and conditions named. Binding calls can cover weak binding; strength is not graded here. For some assays here: In cells and extracts the contact can be indirect.
How the values were obtained:
[1] = biological target: GST SHANK3 SPN domain, wild type (rat) (UniProt Q9JLU4); assay: pull-down
[2] = biological target: GST SHANK3 SPN domain, wild type (rat) (UniProt Q9JLU4); assay: co-sedimentation

Chains of the proteins cited; added tags and fusions are not shown. Lines headed by an entry give the natural chain unless they say otherwise; changes in a name come on top.
UniProt Q9JLU4: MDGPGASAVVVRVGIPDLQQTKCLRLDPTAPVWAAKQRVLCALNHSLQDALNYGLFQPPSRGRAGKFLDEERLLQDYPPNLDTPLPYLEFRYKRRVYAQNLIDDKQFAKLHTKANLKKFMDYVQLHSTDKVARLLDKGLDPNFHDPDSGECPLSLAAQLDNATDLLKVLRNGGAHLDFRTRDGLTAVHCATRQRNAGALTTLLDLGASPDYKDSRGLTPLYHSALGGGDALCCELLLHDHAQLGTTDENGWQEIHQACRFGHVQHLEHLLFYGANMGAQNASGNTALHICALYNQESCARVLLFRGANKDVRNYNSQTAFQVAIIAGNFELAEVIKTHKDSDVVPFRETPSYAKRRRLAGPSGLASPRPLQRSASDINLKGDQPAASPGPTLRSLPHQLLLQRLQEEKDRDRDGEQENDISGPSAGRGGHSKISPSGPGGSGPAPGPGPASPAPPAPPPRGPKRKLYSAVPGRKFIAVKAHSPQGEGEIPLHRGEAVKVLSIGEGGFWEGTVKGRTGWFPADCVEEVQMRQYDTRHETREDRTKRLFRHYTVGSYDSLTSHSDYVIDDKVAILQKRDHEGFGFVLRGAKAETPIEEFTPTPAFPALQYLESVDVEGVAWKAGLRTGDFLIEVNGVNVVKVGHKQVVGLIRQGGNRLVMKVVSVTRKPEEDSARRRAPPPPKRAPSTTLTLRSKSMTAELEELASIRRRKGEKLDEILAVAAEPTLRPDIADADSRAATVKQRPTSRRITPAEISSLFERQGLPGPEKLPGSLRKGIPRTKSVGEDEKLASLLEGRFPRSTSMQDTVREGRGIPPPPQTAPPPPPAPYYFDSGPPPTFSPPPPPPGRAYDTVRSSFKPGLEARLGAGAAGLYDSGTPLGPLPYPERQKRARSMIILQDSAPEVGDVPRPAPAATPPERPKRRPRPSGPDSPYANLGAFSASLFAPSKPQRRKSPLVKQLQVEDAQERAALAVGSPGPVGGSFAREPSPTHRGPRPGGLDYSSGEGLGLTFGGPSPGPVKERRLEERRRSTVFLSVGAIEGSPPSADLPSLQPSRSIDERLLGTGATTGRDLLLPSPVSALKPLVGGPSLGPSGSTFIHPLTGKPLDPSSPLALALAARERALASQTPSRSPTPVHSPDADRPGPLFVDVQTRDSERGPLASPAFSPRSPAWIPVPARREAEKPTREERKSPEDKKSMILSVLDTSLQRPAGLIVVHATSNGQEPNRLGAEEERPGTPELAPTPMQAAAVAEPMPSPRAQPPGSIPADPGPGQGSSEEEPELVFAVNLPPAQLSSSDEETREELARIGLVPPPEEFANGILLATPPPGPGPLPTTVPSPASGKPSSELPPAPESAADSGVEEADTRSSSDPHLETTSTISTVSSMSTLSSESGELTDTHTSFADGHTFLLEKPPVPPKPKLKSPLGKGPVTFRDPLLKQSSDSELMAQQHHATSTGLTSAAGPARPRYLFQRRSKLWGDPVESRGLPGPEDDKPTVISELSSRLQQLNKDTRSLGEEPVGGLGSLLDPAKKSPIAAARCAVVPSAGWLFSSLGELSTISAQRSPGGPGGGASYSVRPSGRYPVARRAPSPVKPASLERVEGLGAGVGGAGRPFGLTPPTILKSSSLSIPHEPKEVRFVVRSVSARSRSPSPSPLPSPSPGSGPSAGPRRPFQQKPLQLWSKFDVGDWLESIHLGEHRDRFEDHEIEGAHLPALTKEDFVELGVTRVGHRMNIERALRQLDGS
UniProt P62834: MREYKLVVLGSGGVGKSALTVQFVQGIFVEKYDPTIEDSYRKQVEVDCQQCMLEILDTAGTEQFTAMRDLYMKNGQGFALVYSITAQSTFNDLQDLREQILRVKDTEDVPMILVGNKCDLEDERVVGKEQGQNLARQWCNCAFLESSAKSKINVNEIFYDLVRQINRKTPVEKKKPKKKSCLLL
UniProt P61224: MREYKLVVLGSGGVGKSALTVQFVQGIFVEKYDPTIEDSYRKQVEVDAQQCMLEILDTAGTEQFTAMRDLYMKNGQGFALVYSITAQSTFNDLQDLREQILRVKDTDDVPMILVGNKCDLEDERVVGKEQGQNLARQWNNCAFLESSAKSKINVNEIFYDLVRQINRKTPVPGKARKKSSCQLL

| Substance | binding [1] | binding [2] |
| --- | --- | --- |
| GFP Rap1 Q63E (constitutively active human Rap1A) (from UniProt P62834 1-184) | binds |  |
| active GMPPCP-loaded His-Rap1b (from UniProt P61224 1-184) |  | binds |

From article doi:10.1101/2020.11.12.379222
